For the experiment, the system named is HEK293A TEAD-LUC reporter. Briefly: TEAD-luciferase reporter activity (YAP activation), robust Z score vs plate; higher = stronger YAP/TEAD activation. As to conditions: 24 h. (In general: A reporter such as luciferase makes a cellular process visible.)

Counter-ions that a name gives are not always drawn. The list shows a part of the results. This data set is noisy: repeats of one test often differ as much as different tests do.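 Human kidney-derived cells stably carry a construct in which eight TEAD-binding elements drive luciferase, measured by luminescence in a drug-repurposing library screen. A hit is any compound whose signal exceeds the plate mean by more than five robust Z scores.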

For the compound `Nc1nc2cc(-c3ccc4ncc(C(=O)N5CCOCC5)n4c3)ccc2o1`, the TEAD-luciferase reporter activity (compound concentration: 200 nM) is inactive: -1.63, the TEAD-luciferase reporter activity (compound concentration: 2 uM) was inactive: -0.838 and the TEAD-luciferase reporter activity (compound concentration: 10 uM) was inactive: -0.22.

For the compound `COC(=O)C(Cc1ccccc1)NC(=O)C(N)CC(=O)O` (configuration not stated), the TEAD-luciferase reporter activity by setting is: (compound concentration: 200 nM) inactive: -0.186; (compound concentration: 2 uM) inactive: -0.258; (compound concentration: 10 uM) inactive: 1.18.

As for `CN(NC(=O)CC(=O)NN(C)C(=S)c1ccccc1)C(=S)c1ccccc1` [elesclomol], under “compound concentration: 2 uM”, the TEAD-luciferase reporter activity was inactive: -0.483.

With `CN(NC(=O)CC(=O)NN(C)C(=S)c1ccccc1)C(=S)c1ccccc1` [Elesclomol], the TEAD-luciferase reporter activity is, setting by setting: (compound concentration: 200 nM) inactive: -3.59; (compound concentration: 10 uM) inactive: -3.35.

`CC(C)C[C@H](NC(=O)[C@@H](O)[C@H](N)Cc1ccccc1)C(=O)O` [Ubenimex]: the TEAD-luciferase reporter activity (compound concentration: 2 uM) is inactive: -1.52.

Turning to `CC(C)C[C@H](NC(=O)[C@@H](O)[C@H](N)Cc1ccccc1)C(=O)O`, the TEAD-luciferase reporter activity was inactive: -0.72 (compound concentration: 200 nM) and inactive: -0.14 (compound concentration: 10 uM).

Take `COc1ccc(CCN2CCC[C@H](CN3CCc4cc(OC)c(OC)cc4CC3=O)C2)cc1OC` [Cilobradine]: the TEAD-luciferase reporter activity reads like this: (compound concentration: 200 nM) inactive: -0.778; (compound concentration: 2 uM) inactive: -1.22; (compound concentration: 10 uM) inactive: -0.77.

Turning to `CCOc1ccc2[nH]c(SCCN3CCOCC3)nc2c1` [Fabomotizole hydrochloride], the TEAD-luciferase reporter activity reads like this: (compound concentration: 200 nM) inactive: 0.645; (compound concentration: 2 uM) inactive: 0.105; (compound concentration: 10 uM) inactive: 0.456.

As for `COC(=O)C1=C(C)NC(C)=C(C(=O)OCC2COC3(CCN(c4ccc(Cl)cc4)CC3)O2)C1c1cccc([N+](=O)[O-])c1` (configuration not stated), the TEAD-luciferase reporter activity was inactive: -0.0151 (compound concentration: 200 nM), inactive: -1.3 (compound concentration: 2 uM) and inactive: 0.199 (compound concentration: 10 uM).

Consider `CC(=O)[C@@]1(O)CCC2C3CCC4=CC(=O)CCC4(C)C3[C@H](O)CC21C` (some centres not stated), for which the TEAD-luciferase reporter activity (compound concentration: 200 nM) is inactive: 0.655, the TEAD-luciferase reporter activity (compound concentration: 2 uM) is inactive: -1.15 and the TEAD-luciferase reporter activity (compound concentration: 10 uM) is inactive: 0.367.

In the case of `COCCCC=C(NOCCN)c1ccc(C(F)(F)F)cc1` [fluvoxamine CR], the TEAD-luciferase reporter activity (compound concentration: 200 nM) is inactive: -0.51, the TEAD-luciferase reporter activity (compound concentration: 2 uM) was inactive: 0.157 and the TEAD-luciferase reporter activity (compound concentration: 10 uM) is inactive: 1.08.

As to `CN1C(C(=O)Nc2nccs2)C(=O)c2ccccc2S1(=O)=O` (configuration not stated) [sudoxicam], the TEAD-luciferase reporter activity by setting is: (compound concentration: 200 nM) inactive: -0.269; (compound concentration: 2 uM) inactive: -0.523; (compound concentration: 10 uM) inactive: -0.0239.

Take `Oc1ccc([C@@H]2COc3cc(O)ccc3[C@H]2O)cc1`: the TEAD-luciferase reporter activity is, setting by setting: (compound concentration: 200 nM) inactive: -0.703; (compound concentration: 2 uM) inactive: 0.925; (compound concentration: 10 uM) active: 7.38.

For the compound `CN(C)CCOC(c1ccccc1)c1ccccc1.Cn1c(=O)c2[nH]c(Cl)nc2n(C)c1=O` [dimenhydrinate CDT, SCOLR], the TEAD-luciferase reporter activity is inactive: 0.278 (compound concentration: 200 nM) and inactive: -0.953 (compound concentration: 10 uM).

On to `CN(C)CCOC(c1ccccc1)c1ccccc1.Cn1c(=O)c2[nH]c(Cl)nc2n(C)c1=O` [dimenhydrinate CDT], for which the TEAD-luciferase reporter activity (compound concentration: 2 uM) was inactive: -0.43.

With `C=C1/C(=C\C=C2/CCC[C@]3(C)[C@@H]([C@H](C)CCCC(C)C)CC[C@@H]23)C[C@@H](O)C[C@@H]1O` [Alfacalcidol], the TEAD-luciferase reporter activity by setting is: (compound concentration: 200 nM) inactive: 0.894; (compound concentration: 2 uM) inactive: 0.141; (compound concentration: 10 uM) inactive: -0.197.

For the compound `NCCON=C1c2ccccc2C2CC2c2ccccc21` (configuration not stated) [mariptiline], the TEAD-luciferase reporter activity by setting is: (compound concentration: 200 nM) inactive: -0.491; (compound concentration: 2 uM) inactive: -0.86; (compound concentration: 10 uM) inactive: 2.05.

For `CC(=O)OC(CC(=O)O)C[N+](C)(C)C` [acetyl L-carnitine], the TEAD-luciferase reporter activity runs as follows: (compound concentration: 200 nM) inactive: 0.683; (compound concentration: 2 uM) inactive: 0.0246; (compound concentration: 10 uM) inactive: 1.04.

For `NCCCC[C@H](NC(=O)[C@@H](Cc1cc(Br)c(O)c(Br)c1)NC(=O)N1CCC(N2Cc3ccccc3NC2=O)CC1)C(=O)N1CCN(c2ccncc2)CC1` [olcegepant], the TEAD-luciferase reporter activity is, setting by setting: (compound concentration: 200 nM) inactive: 2.89; (compound concentration: 10 uM) inactive: -0.775.

Take `NCCCC[C@H](NC(=O)[C@@H](Cc1cc(Br)c(O)c(Br)c1)NC(=O)N1CCC(N2Cc3ccccc3NC2=O)CC1)C(=O)N1CCN(c2ccncc2)CC1`: under “compound concentration: 2 uM”, the TEAD-luciferase reporter activity is inactive: -0.447.

As for `CCN(CC)C(=O)/C(C#N)=C/c1cc(O)c(O)c([N+](=O)[O-])c1` [entacapone], the TEAD-luciferase reporter activity was inactive: 0.788 (compound concentration: 200 nM), inactive: -1.88 (compound concentration: 2 uM) and inactive: 1.57 (compound concentration: 10 uM).

In the case of `CCCc1cc(C2=N[C@@H](C(=O)NO)CO2)cc(OC)c1OC`, the TEAD-luciferase reporter activity by setting is: (compound concentration: 200 nM) inactive: -1.71; (compound concentration: 2 uM) inactive: -1.51; (compound concentration: 10 uM) inactive: 1.43.

Turning to `CON=C(C(=O)NC1C(=O)N2C(C(=O)O)=C(CSc3nc(C)c(CC(=O)O)s3)CSC12)c1csc(N)n1` (configuration not stated) [Cefodizime], the TEAD-luciferase reporter activity reads like this: (compound concentration: 200 nM) inactive: -2.31; (compound concentration: 10 uM) inactive: 2.38.

Regarding `CON=C(C(=O)NC1C(=O)N2C(C(=O)O)=C(CSc3nc(C)c(CC(=O)O)s3)CSC12)c1csc(N)n1` (configuration not stated) [cefodizime], for the setting “compound concentration: 2 uM”, the TEAD-luciferase reporter activity was inactive: -1.19.

`CCCCCCCN(CCCCCSc1nc(-c2ccccc2)c(-c2ccccc2)[nH]1)C(=O)Nc1ccc(F)cc1F` [Lecimibide]: the TEAD-luciferase reporter activity is inactive: -0.363 (compound concentration: 200 nM), inactive: -0.171 (compound concentration: 2 uM) and inactive: 1.22 (compound concentration: 10 uM).

As to `Cc1c(C)n(CC2CC2C)c2c(OCc3ccc(F)cc3)nncc12` (configuration not stated), the TEAD-luciferase reporter activity is, setting by setting: (compound concentration: 200 nM) inactive: 0.0217; (compound concentration: 2 uM) inactive: -0.663; (compound concentration: 10 uM) inactive: -1.01.

For the compound `CC(=O)NC(Cc1ccc2ccccc2c1)C(=O)NC(Cc1ccc(Cl)cc1)C(=O)NC(Cc1cccnc1)C(=O)NC(CO)C(=O)NC(CCCCNC(=O)c1cccnc1)C(=O)NC(CCCCNC(=O)c1cccnc1)C(=O)NC(CC(C)C)C(=O)NC(CCCCNC(C)C)C(=O)N1CCCC1C(=O)NC(C)C(N)=O` (configuration not stated) [Iturelix], the TEAD-luciferase reporter activity reads like this: (compound concentration: 200 nM) inactive: -0.0812; (compound concentration: 2 uM) inactive: -0.588; (compound concentration: 10 uM) inactive: 3.37.

Consider `CCCCCCCCCCCCCCC[C@@H](O)[C@@H](CO)NC(C)=O`, for which the TEAD-luciferase reporter activity (compound concentration: 200 nM) was inactive: -1.23, the TEAD-luciferase reporter activity (compound concentration: 2 uM) was inactive: 1.84 and the TEAD-luciferase reporter activity (compound concentration: 10 uM) is inactive: 0.707.

For `CCc1nc2c(C)cc(N3CCN(CC(=O)N4CC(O)C4)CC3)cn2c1N(C)c1nc(-c2ccc(F)cc2)c(C#N)s1`, the TEAD-luciferase reporter activity reads like this: (compound concentration: 200 nM) inactive: -1.39; (compound concentration: 2 uM) inactive: 0.0368; (compound concentration: 10 uM) inactive: -0.667.

The values are drawn from the supplement of paper PMC10735217.
